Results are given in words; binding and its absence hold for the method and conditions named. Binding seen in cells or lysates may run through a third protein. Binding calls can cover weak binding; strength is not graded here.
Target: BAR11-YC (Saccharothrix yanglingensis Hhs.015)
Test: split reporter; bimolecular fluorescence complementation; BAR11-YC and catalase-YN fusions transiently co-expressed by agroinfiltration in N. benthamiana leaves; YFP seen by laser confocal microscopy; empty vectors YN-1301 and YC-1301 as negative controls

| binding | Binder |
| --- | --- |
| binds | AtCAT3-YN (enzyme, UniProt Q42547 1-492) MDPYKYRPSSAYNAPFYTTNGGAPVSNNISSLTIGERGPVLLEDYHLIEKVANFTRERIPERVVHARGISAKGFFEVTHDISNLTCADFLRAPGVQTPVIVRFSTVVHERASPETMRDIRGFAVKFYTREGNFDLVGNNTPVFFIRDGIQFPDVVHALKPNPKTNIQEYWRILDYMSHLPESLLTWCWMFDDVGIPQDYRHMEGFGVHTYTLIAKSGKVLFVKFHWKPTCGIKNLTDEEAKVVGGANHSHATKDLHDAIASGNYPEWKLFIQTMDPADEDKFDFDPLDVTKIWPEDILPLQPVGRLVLNRTIDNFFNETEQLAFNPGLVVPGIYYSDDKLLQCRIFAYGDTQRHRLGPNYLQLPVNAPKCAHHNNHHEGFMNFMHRDEEINYYPSKFDPVRCAEKVPTPTNSYTGIRTKCVIKKENNFKQAGDRYRSWAPDRQDRFVKRWVEILSEPRLTHEIRGIWISYWSQADRSLGQKLASRLNVRPSI |
| binds | AtCAT2-YN (enzyme, UniProt P25819 1-492) MDPYKYRPASSYNSPFFTTNSGAPVWNNNSSMTVGPRGPILLEDYHLVEKLANFDRERIPERVVHARGASAKGFFEVTHDISNLTCADFLRAPGVQTPVIVRFSTVIHERGSPETLRDPRGFAVKFYTREGNFDLVGNNFPVFFIRDGMKFPDMVHALKPNPKSHIQENWRILDFFSHHPESLNMFTFLFDDIGIPQDYRHMDGSGVNTYMLINKAGKAHYVKFHWKPTCGVKSLLEEDAIRVGGTNHSHATQDLYDSIAAGNYPEWKLFIQIIDPADEDKFDFDPLDVTKTWPEDILPLQPVGRMVLNKNIDNFFAENEQLAFCPAIIVPGIHYSDDKLLQTRVFSYADTQRHRLGPNYLQLPVNAPKCAHHNNHHEGFMNFMHRDEEVNYFPSRYDQVRHAEKYPTPPAVCSGKRERCIIEKENNFKEPGERYRTFTPERQERFIQRWIDALSDPRITHEIRSIWISYWSQADKSLGQKLASRLNVRPSI |

Reference: publication PMC5900052
